{
  "source": "patent US11319300B2",
  "about": "“Polyfluoro-substituted aromatic heterocyclic derivative, pharmaceutical composition containing same, and applications thereof” (ZHEJIANG UNIVERSITY, priority 2017, dated 2022)",
  "test_system": "PKC",
  "experiment": "Kinase selectivity assay (Caliper), PKC",
  "type": "biochemical",
  "conditions": "PKC versus Akt1",
  "description": "A Sixty-Second Embodiment: Kinase Selectivity Assay Test Compound Configuration 1) DMSO was configured with 50× compound stock solution for use. 2) Each compound was diluted in a 96-well plate at a concentration gradient of 5 to 7 to ensure a drug volume of 10 μl per well, to 6 to 7 concentrations, while 100 μl of DMSO was added as a blank control group, and a negative control group without an enzyme substrate was added. 3) Another 96-well plate was prepared, and 10 μl of the above compound was added to 90 μl of 1×kinase base buffer and mixed for 10 min. The board to be tested was prepared: 1) Take a mixture of 5 μl to 384-well plates in a 96-well plate of the above configuration, and per compound has two replicate wells. Kinase Reaction: 1) Configurate a 2.5×kinase solution and add the corresponding 1×kinase base buffer; 2) Configurate a 2.5× polypeptide solution, add a FAM-labeled polypeptide and ATP in a 1×kinase base buffer; 3) 10 μl of 2.5× kinase solution was added to the 384-well plate to be tested, put at room temperature for 10 min, then 10 μl of 2.5× polypeptide solution was added, and after reacting at 28° C. for 1 h, 25 μl of reaction stop buffer was added. The Caliper program reads the plate and uses the data to obtain the IC50 value of the corresponding compound inhibiting kinase. […]",
  "note": "At least one compound was matched to its structure with a doubt left.",
  "data": [
    {"compound": "Cn1nccc1-c1cc(F)c(C(=O)N[C@@H]2CNCC[C@H]2c2ccc(F)c(F)c2)c(F)c1", "note": "[VII-12]", "values": [
      {"measurement": "Kinase selectivity: (PKC inhibitory activity IC50)/(Akt1 inhibitory activity IC50)", "value": "123-times"}
    ]}
  ]
}
